The text below walks through data of publication PMC7728349, “Exploring the Interaction between the SWI/SNF Chromatin Remodeling Complex and the Zinc Finger Factor CTCF” (International Journal of Molecular Sciences, 2020).

Amino acid sequences for entries named in this document (tags omitted).
UniProt Q12824: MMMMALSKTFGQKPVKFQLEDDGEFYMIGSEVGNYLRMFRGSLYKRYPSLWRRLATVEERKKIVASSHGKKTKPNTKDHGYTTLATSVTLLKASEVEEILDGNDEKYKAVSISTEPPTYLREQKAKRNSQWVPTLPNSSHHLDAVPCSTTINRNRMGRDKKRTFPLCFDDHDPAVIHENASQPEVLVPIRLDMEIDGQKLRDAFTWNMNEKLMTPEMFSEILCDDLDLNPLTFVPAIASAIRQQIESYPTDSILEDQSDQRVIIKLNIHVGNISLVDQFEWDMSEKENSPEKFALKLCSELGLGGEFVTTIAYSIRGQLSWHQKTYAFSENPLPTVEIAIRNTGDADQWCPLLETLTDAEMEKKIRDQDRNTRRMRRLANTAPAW
UniProt Q8TAQ2: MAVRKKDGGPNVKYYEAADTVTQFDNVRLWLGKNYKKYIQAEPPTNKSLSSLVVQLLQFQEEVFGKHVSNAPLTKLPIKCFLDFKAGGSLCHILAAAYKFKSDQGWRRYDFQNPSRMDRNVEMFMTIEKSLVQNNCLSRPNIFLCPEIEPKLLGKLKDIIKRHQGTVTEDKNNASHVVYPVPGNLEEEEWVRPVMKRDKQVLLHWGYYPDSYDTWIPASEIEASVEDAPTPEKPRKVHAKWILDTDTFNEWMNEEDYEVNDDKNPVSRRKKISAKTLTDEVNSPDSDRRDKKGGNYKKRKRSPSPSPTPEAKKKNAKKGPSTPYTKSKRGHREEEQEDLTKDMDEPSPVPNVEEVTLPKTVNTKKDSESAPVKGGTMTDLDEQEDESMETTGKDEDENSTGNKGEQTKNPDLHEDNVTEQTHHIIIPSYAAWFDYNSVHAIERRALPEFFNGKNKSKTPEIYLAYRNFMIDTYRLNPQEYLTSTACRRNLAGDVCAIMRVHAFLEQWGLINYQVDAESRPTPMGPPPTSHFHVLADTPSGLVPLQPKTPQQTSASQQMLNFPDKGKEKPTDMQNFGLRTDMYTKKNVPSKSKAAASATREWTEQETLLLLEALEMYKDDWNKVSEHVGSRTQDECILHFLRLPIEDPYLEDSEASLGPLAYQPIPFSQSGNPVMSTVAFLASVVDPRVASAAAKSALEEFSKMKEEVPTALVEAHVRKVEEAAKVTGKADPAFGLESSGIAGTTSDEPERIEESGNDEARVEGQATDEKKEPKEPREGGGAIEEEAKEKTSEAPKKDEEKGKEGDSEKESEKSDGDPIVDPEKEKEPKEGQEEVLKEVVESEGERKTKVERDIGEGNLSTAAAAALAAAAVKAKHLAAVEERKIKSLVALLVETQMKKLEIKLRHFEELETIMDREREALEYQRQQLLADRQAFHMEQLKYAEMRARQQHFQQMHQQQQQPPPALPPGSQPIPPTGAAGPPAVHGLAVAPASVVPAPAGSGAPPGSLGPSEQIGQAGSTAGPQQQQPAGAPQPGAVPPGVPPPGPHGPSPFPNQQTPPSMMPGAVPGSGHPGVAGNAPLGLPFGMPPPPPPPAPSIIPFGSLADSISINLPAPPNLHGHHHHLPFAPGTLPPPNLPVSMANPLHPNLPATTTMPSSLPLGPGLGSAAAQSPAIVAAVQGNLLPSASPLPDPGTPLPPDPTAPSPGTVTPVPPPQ
UniProt Q9H8M2: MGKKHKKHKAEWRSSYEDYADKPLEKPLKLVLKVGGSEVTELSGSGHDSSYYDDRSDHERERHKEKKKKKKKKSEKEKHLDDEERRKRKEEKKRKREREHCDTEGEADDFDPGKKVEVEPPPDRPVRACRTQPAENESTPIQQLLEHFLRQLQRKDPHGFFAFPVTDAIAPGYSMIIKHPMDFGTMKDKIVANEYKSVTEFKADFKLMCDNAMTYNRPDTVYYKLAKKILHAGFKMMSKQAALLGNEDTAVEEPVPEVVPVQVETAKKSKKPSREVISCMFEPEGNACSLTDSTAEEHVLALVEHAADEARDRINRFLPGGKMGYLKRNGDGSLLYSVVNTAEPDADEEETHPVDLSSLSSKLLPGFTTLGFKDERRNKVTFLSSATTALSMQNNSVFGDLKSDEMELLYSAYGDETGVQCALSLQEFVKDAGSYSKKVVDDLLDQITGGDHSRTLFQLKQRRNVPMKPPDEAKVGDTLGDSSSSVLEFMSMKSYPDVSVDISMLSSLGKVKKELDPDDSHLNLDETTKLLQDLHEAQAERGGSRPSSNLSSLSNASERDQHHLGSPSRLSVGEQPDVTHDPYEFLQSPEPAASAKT

These are yes or no findings as the source states them, for the method shown. Binding seen in cells or lysates may run through a third protein. Some binding calls cover weakened binding; strength is not graded here.

For this experiment, the target named is T1, Endogenous CTCF (HeLa) (human (endogenous in HeLa)) (UniProt P49711).
T1 sequence: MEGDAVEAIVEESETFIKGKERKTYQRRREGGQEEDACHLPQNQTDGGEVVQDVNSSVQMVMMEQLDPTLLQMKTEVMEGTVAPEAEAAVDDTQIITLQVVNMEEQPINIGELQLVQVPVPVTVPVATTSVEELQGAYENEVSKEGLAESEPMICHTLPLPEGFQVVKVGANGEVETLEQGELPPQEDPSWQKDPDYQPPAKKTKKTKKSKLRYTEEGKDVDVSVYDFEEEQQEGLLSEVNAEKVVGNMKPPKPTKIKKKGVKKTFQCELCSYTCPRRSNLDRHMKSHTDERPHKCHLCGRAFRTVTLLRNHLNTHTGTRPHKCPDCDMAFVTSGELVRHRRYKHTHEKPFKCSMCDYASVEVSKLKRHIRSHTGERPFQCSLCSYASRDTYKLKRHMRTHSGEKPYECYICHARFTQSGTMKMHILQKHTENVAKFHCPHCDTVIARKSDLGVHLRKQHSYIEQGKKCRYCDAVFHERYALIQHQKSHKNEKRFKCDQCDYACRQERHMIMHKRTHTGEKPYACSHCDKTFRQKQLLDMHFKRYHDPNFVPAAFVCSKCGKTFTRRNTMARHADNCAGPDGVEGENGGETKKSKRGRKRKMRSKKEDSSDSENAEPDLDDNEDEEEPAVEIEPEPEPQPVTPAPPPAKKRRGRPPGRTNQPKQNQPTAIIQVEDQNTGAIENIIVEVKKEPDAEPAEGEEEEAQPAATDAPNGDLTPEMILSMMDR
Description: co-IP; endogenous CTCF immunoprecipitated with pAb anti-CTCF from 500 µg HeLa nuclear cell fractions, Dynabeads Protein A and Protein G; immunoblot; rabbit IgG IP as control.
As for “BAF47 (HeLa) (from UniProt Q12824 1-385)”, the binding entry is on record as “binds”.

With “BAF170 (HeLa) (from UniProt Q8TAQ2 1-1214)”, the binding result is “binds”.

Consider BRD9 (HeLa) (from UniProt Q9H8M2 1-597), for which the binding result is recorded as “binds”.
